Experimental data published in patent US7838556B2 (priority 2006, dated 2010).

Target: GABA, Non-Selective
Type: binding
Conditions: read-out: Ki (M) Ref. Cpd.

NCCCC(=O)O [Compound 2, gamma-aminobutyric acid, reference compound]
Ki: 1.1e-08 M
